Results: publication PMC7615804
No constants are given. Whether binding was seen depends on the method and setting.

Assays:
[1] = molecular target: GST-JIP3^563-585 F576A (human) (UniProt Q9UPT6); assay: pull-down; GST pull-down on glutathione resin with GST-JIP3^helix constructs as bait and RH1 domain constructs as prey; purified recombinant proteins, 50 - 300 pmol each in 20 μL GST-PD buffer (50 mM HEPES pH 7.5, 100 mM KCl, 1 mM MgCl2, 1 mM DTT), room temperature; Coomassie-stained SDS-PAGE; both purified
[2] = molecular target: GST-JIP3^563-585 L579A (human) (UniProt Q9UPT6); assay: as above

B1: JIP3^1-108 (RH1 domain construct) (domain or fragment, UniProt Q9ESN9-5 1-108)
chain: MMEIQMDEGGGVVVYQDDYCSGSVMSERVSGLAGSIYREFERLIHCYDEEVVKELMPLVVNVLENLDSVLSENQEHEVELELLREDNEQLLTQYEREKALRKQAEEKF
- binding [1]: no binding (tested: 50 - 300 pmol each in 20 μL)
- binding [2]: no binding (tested: 50 - 300 pmol each in 20 μL)
